Values from PubChem BioAssay AID686938 (Drosophila RNAi Screening Center, 2013).
In all, the deposit lists about 23,000 reagents; this is an unselected part of those with a known target gene and a result. In the full data, 75 (0.33%) are marked active. 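Raw plate signals without normalisation; calls rest on plate z-scores that were not deposited; ratio present for only 364 wells.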 Names joined by + are all predicted targets of the reagent. Not given: the dose of the treatment.

- Assay: 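Fly genes required for calcium entry once internal stores are emptied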 (primary screen)
- Cell system: Drosophila S2R+ cells
- Reagent: long dsRNA against Drosophila genes, about 0.25 µg dsRNA per well, roughly 10,000 cells
- Time to read-out: 5 days of knock-down before the calcium assay
- Treatment: thapsigargin (SERCA pump blocker) to empty calcium stores; entry signal taken 4 min after adding it
- Read-out: 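Per-well fluo-4 fluorescence in two replicates, unnormalised, measured in resting cells and 4 min after store depletion by the SERCA blocker thapsigargin; ratio of the two present in few wells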
- Scale: calcium entry signal: higher = stronger calcium signal after store depletion; entry to resting ratio: higher = more calcium entry relative to resting level; resting calcium signal: higher = higher resting calcium signal
- Call rule: 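Hit if the duplicate-averaged plate z-score for entry over resting signal is under −3; wells with weak total dye signal (Fmax z < −2) or more than 5 off-targets removed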
- Calls: active = strongly reduced calcium entry; inactive = no strong reduction

gene knocked down | DRSC id | calcium entry signal, replicate 1 (fluorescence units) | calcium entry signal, replicate 2 (fluorescence units) | entry to resting ratio | resting calcium signal, replicate 1 (fluorescence units) | resting calcium signal, replicate 2 (fluorescence units) | Call
RpS19b | DRSC15773 | 3.50e7 | 2.68e7 | – | 1.91e7 | 1.26e7 | inactive
Zasp66 | DRSC08932 | 2.71e7 | 4.31e7 | – | 1.49e7 | 1.89e7 | inactive
Zasp66 | DRSC10631 | 4.39e7 | 3.36e7 | – | 2.80e7 | 1.52e7 | inactive
Zasp66 | DRSC10632 | 3.15e7 | 4.44e7 | – | 1.50e7 | 1.90e7 | inactive
CG31710 | DRSC01089 | 4.07e7 | 5.54e7 | – | 2.05e7 | 2.75e7 | inactive
CG31710 | DRSC22863 | 1.68e7 | 3.60e7 | – | 9.14e6 | 1.51e7 | inactive
Tsp42Ek | DRSC06187 | 3.46e7 | 3.66e7 | – | 1.72e7 | 1.81e7 | inactive
dgo | DRSC06134 | 4.37e7 | 4.34e7 | – | 1.89e7 | 1.92e7 | inactive
haf | DRSC00381 | 3.82e7 | 5.41e7 | – | 1.94e7 | 2.04e7 | inactive
LManV | DRSC03223 | 4.60e7 | – | – | 2.18e7 | – | inactive
Dnah3 | DRSC08130 | 3.10e7 | 3.85e7 | – | 1.41e7 | 1.71e7 | inactive
Dnah3 | DRSC08513 | 2.82e7 | 3.90e7 | – | 1.34e7 | 1.64e7 | inactive
CG13564 | DRSC04201 | 3.06e7 | 4.05e7 | – | 1.63e7 | 1.83e7 | inactive
CG7362 | DRSC16236 | 3.23e7 | 2.51e7 | – | 1.65e7 | 1.29e7 | inactive
jhamt | DRSC01985 | 4.86e7 | 3.59e7 | – | 2.30e7 | 1.85e7 | inactive
GluRIIC | DRSC00642 | 5.17e7 | – | – | 2.67e7 | – | inactive
Cyp9f2 | DRSC16635 | 3.39e7 | 4.59e7 | – | 1.68e7 | 1.97e7 | inactive
Tango5 | DRSC18023 | 4.39e7 | 4.03e7 | – | 1.95e7 | 1.92e7 | inactive
CG31826 | DRSC03357 | 4.52e7 | 3.20e7 | – | 1.93e7 | 1.45e7 | inactive
T48 | DRSC16878 | 3.37e7 | 5.66e7 | – | 1.85e7 | 2.28e7 | inactive
Mipp2 | DRSC18682 | 3.41e7 | 3.09e7 | – | 1.51e7 | 1.43e7 | inactive
CG15536 | DRSC15072 | 2.89e7 | 4.08e7 | – | 1.63e7 | 1.99e7 | inactive
CG15536 | DRSC22844 | 2.91e7 | 4.53e7 | – | 1.50e7 | 1.90e7 | inactive
RpL38 | DRSC07818 | 1.36e7 | 1.53e7 | – | 1.02e7 | 1.00e7 | inactive
ACXD | DRSC07843 | 3.29e7 | 4.86e7 | – | 1.83e7 | 2.15e7 | inactive
UGP + PGRP-LF | DRSC10418 | 1.59e7 | 1.95e7 | – | 8.94e6 | 9.57e6 | inactive
Bka | DRSC02757 | 2.64e7 | 3.85e7 | – | 1.46e7 | 1.86e7 | inactive
Cdep | DRSC12028 | 3.63e7 | 3.10e7 | – | 1.75e7 | 1.56e7 | inactive
Cdep | DRSC12220 | 2.71e7 | 2.58e7 | – | 1.60e7 | 1.07e7 | inactive
Cdep | DRSC12291 | 3.21e7 | 6.03e7 | – | 1.61e7 | 2.31e7 | inactive
SLC22A | DRSC11826 | 3.31e7 | 5.31e7 | – | 1.71e7 | 2.39e7 | inactive
SLC22A | DRSC11827 | 3.51e7 | 5.73e7 | – | 1.59e7 | 2.29e7 | inactive
CG8281 | DRSC10976 | 3.17e7 | 4.09e7 | – | 1.45e7 | 1.81e7 | inactive
CG2898 | DRSC18238 | 2.43e7 | 3.98e7 | – | 1.21e7 | 1.68e7 | inactive
Qsox4 | DRSC14224 | 4.56e7 | 4.18e7 | – | 2.05e7 | 1.84e7 | inactive
CG5646 | DRSC15853 | 4.63e7 | 5.43e7 | – | 2.15e7 | 2.48e7 | inactive
Rop | DRSC08693 | 4.86e7 | 3.84e7 | – | 3.53e7 | 1.83e7 | inactive
caly | DRSC07182 | 3.16e7 | 3.82e7 | – | 1.56e7 | 1.85e7 | inactive
PK2-R1 | DRSC16447 | 2.93e7 | 5.56e7 | – | 1.46e7 | 6.67e7 | inactive

An excerpt taken from the entries so far, as a working copy:
gene knocked down | DRSC id | calcium entry signal, replicate 1 (fluorescence units) | calcium entry signal, replicate 2 (fluorescence units) | entry to resting ratio | resting calcium signal, replicate 1 (fluorescence units) | resting calcium signal, replicate 2 (fluorescence units) | Call
CG31826 | DRSC03357 | 4.52e7 | 3.20e7 | – | 1.93e7 | 1.45e7 | inactive
T48 | DRSC16878 | 3.37e7 | 5.66e7 | – | 1.85e7 | 2.28e7 | inactive
Mipp2 | DRSC18682 | 3.41e7 | 3.09e7 | – | 1.51e7 | 1.43e7 | inactive
CG15536 | DRSC15072 | 2.89e7 | 4.08e7 | – | 1.63e7 | 1.99e7 | inactive
CG15536 | DRSC22844 | 2.91e7 | 4.53e7 | – | 1.50e7 | 1.90e7 | inactive
RpL38 | DRSC07818 | 1.36e7 | 1.53e7 | – | 1.02e7 | 1.00e7 | inactive
ACXD | DRSC07843 | 3.29e7 | 4.86e7 | – | 1.83e7 | 2.15e7 | inactive
UGP + PGRP-LF | DRSC10418 | 1.59e7 | 1.95e7 | – | 8.94e6 | 9.57e6 | inactive
Bka | DRSC02757 | 2.64e7 | 3.85e7 | – | 1.46e7 | 1.86e7 | inactive

Next records follow:
gene knocked down | DRSC id | calcium entry signal, replicate 1 (fluorescence units) | calcium entry signal, replicate 2 (fluorescence units) | entry to resting ratio | resting calcium signal, replicate 1 (fluorescence units) | resting calcium signal, replicate 2 (fluorescence units) | Call
holn1 | DRSC02827 | 4.01e7 | – | – | 2.18e7 | – | inactive
holn1 | DRSC22822 | 3.48e7 | 3.29e7 | – | 1.69e7 | 1.58e7 | inactive
CG43867 | DRSC17582 | 3.50e7 | 4.12e7 | – | 1.98e7 | 1.76e7 | inactive
CG43867 | DRSC17836 | 3.61e7 | 4.67e7 | 2 | 1.78e7 | 1.90e7 | inactive
CG43867 | DRSC17837 | 4.27e7 | 3.06e7 | 2.1 | 2.01e7 | 1.29e7 | inactive
CG43867 | DRSC17942 | 3.87e7 | 3.40e7 | 2.1 | 1.87e7 | 1.76e7 | inactive
CG43867 | DRSC17943 | 4.22e7 | 5.72e7 | 2 | 2.06e7 | 2.26e7 | inactive
CG13728 | DRSC10056 | 3.97e7 | 4.60e7 | – | 1.68e7 | 1.94e7 | inactive
CG34244 | DRSC09304 | 2.55e7 | 3.01e7 | – | 1.30e7 | 1.47e7 | inactive
mei-P22 | DRSC11366 | 2.39e7 | 4.04e7 | – | 1.23e7 | 1.87e7 | inactive
Pstk + Tim9b | DRSC19504 | 2.29e7 | 2.47e7 | – | 1.21e7 | 9.92e6 | inactive
Pstk + Tim9b | DRSC20292 | 3.73e7 | 4.01e7 | – | 2.03e7 | 1.74e7 | inactive
CG42613 | DRSC13332 | 3.28e7 | 2.79e7 | – | 1.70e7 | 1.34e7 | inactive
CG42613 | DRSC14769 | 1.18e7 | 2.27e7 | – | 3.09e7 | 1.04e7 | inactive
CG42613 | DRSC15802 | 2.37e7 | 2.03e7 | – | 1.03e7 | 8.80e6 | inactive
CG42613 | DRSC22613 | 3.84e7 | 3.44e7 | – | 2.14e7 | 1.73e7 | inactive
5-HT1B | DRSC05031 | 4.63e7 | 3.58e7 | – | 2.02e7 | 1.81e7 | inactive
5-HT1B | DRSC05769 | 3.14e7 | 4.01e7 | – | 1.82e7 | 2.21e7 | inactive
Bhmt | DRSC02079 | 4.15e7 | 4.97e7 | – | 2.09e7 | 2.27e7 | inactive
slmo + CG34179 | DRSC03143 | 4.86e7 | – | – | 2.38e7 | – | inactive
TORIP | DRSC10104 | 3.18e7 | 3.91e7 | – | 1.67e7 | 2.66e7 | inactive
CG44774 | DRSC18342 | 2.82e7 | 3.77e7 | – | 1.47e7 | 1.65e7 | inactive
CG15534 | DRSC15070 | 2.95e7 | 4.62e7 | – | 1.55e7 | 1.88e7 | inactive
CG17059 | DRSC06654 | 2.44e7 | 4.04e7 | – | 1.30e7 | 1.66e7 | inactive
CG18367 | DRSC06545 | 4.51e7 | 3.41e7 | – | 2.01e7 | 1.72e7 | inactive
FMRFa | DRSC07428 | 2.99e7 | 2.89e7 | – | 1.40e7 | 1.41e7 | inactive
Nt5a | DRSC08561 | 3.27e7 | 2.84e7 | – | 1.53e7 | 1.45e7 | inactive
CG13481 | DRSC10023 | 3.61e7 | 4.33e7 | – | 1.69e7 | 1.92e7 | inactive
CG13252 | DRSC11700 | 2.61e7 | 4.49e7 | – | 1.39e7 | 1.99e7 | inactive
Cpr12A | DRSC19722 | 3.93e7 | 3.91e7 | – | 1.77e7 | 1.72e7 | inactive
bsf | DRSC02035 | 3.83e7 | – | – | 1.68e7 | – | inactive
CG15394 | DRSC00408 | 3.47e7 | 3.96e7 | – | 1.71e7 | 1.94e7 | inactive
CG15914 | DRSC19739 | 3.67e7 | 3.17e7 | – | 1.93e7 | 1.56e7 | inactive
Arpc5 | DRSC00730 | 3.44e7 | 3.83e7 | – | 1.77e7 | 1.90e7 | inactive
CG3191 | DRSC18530 | 3.70e7 | 3.67e7 | – | 1.74e7 | 1.71e7 | inactive
ich | DRSC12715 | 3.35e7 | 5.91e7 | – | 1.62e7 | 2.85e7 | inactive
ich | DRSC14448 | 5.03e7 | 3.70e7 | – | 2.54e7 | 1.78e7 | inactive
